Results deposited as PubChem BioAssay AID602196 (INSERM, 2012)

Screen: 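Knock-downs that protect lung cancer cells from cisplatin or sensitise them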
Cell system: human A549 lung cancer cells
Knock-down reagent: siRNA pair against human genes
Timing: 48 h transfection before cisplatin; time from cisplatin to read-out not stated
Conditions: cisplatin at a dose killing half of control-siRNA cells; exact dose and duration not given
Measured: 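Cisplatin cell death as a shift from the 50% death seen with control siRNA; siRNAs toxic or growth-blocking alone scored 0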
Scale: two-siRNA summed score (-2 to +2): higher = both siRNAs protect from cisplatin killing; -2 means both sensitise; mean protection from cisplatin (shift in death) and protection from cisplatin (shift in death), siRNA C and protection from cisplatin (shift in death), siRNA D: higher = protection from cisplatin killing
Hit rule: 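siRNAs harmful alone (LDH or WST-1) get 0; others get +1 for less and -1 for more cisplatin killing; genes are active when the two siRNAs give the same sign, summing to ±2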
Meaning of the calls: active = both siRNAs shift cisplatin killing the same way; inactive = no consistent shift, or siRNA harmful alone
The deposit covers about 23,000 reagents; shown is an unselected part. Over the whole deposit, 455 (2%) are marked active. 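Active includes both protection and sensitisation; some change values fall well beyond the stated -50 to +50 range.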 Reagent sequences are not shown. The record does not give: the amount of reagent.

| target gene | two-siRNA summed score (-2 to +2) | mean protection from cisplatin (shift in death) (%) | protection from cisplatin (shift in death), siRNA C (%) | protection from cisplatin (shift in death), siRNA D (%) | Outcome |
| --- | --- | --- | --- | --- | --- |
| ZMYND8 (GeneID 23613) | 0 | -9.9 | 4.9 | -24.7 | inactive |
| SPATA41 (GeneID 388182) | 0 | -2.9 | -4.9 | -0.9 | inactive |
| NHLH1 (GeneID 4807) | 0 | -14.4 | -18.9 | -9.9 | inactive |
| COASY (GeneID 80347) | 0 | 1.2 | 2.7 | -0.2 | inactive |
| RBAK (GeneID 57786) | 0 | 2.2 | -4 | 8.4 | inactive |
| GABRR1 (GeneID 2569) | 0 | 13.9 | 3.1 | 24.6 | inactive |
| ILRUN (GeneID 64771) | 0 | 19.3 | 14.1 | 24.5 | inactive |
| TTK (GeneID 7272) | 0 | -2.4 | -3.2 | -1.6 | inactive |
| SERTAD1 (GeneID 29950) | 0 | 7.2 | 12.8 | 1.7 | inactive |
| LOC387826 | 0 | -4.2 | -9 | 0.7 | inactive |
| SERPINB3 (GeneID 6317) | 0 | 4.3 | -3.6 | 12.1 | inactive |
| LOC389050 | 1 | 12.8 | 10.5 | 15 | inactive |
| CPEB3 (GeneID 22849) | 1 | 13.4 | 1.3 | 25.5 | inactive |
| PPP1R8 (GeneID 5511) | 0 | -7 | -3.2 | -10.8 | inactive |
| CDK19 (GeneID 23097) | 1 | 14.3 | 18.7 | 9.9 | inactive |
| CCK (GeneID 885) | 1 | 2.2 | -13.2 | 17.7 | inactive |
| TRIM35 (GeneID 23087) | -1 | -11.2 | 0.3 | -22.8 | inactive |
| TMEM234 (GeneID 56063) | -2 | -15.6 | -15.6 | -15.6 | active |
| CD1A (GeneID 909) | 0 | 17 | 20.9 | 13.2 | inactive |
| LOC401285 | 0 | 2.7 | -3.9 | 9.2 | inactive |
| WRAP73 (GeneID 49856) | 1 | 13.9 | 30.7 | -2.9 | inactive |
| LOC391362 | 1 | 15.3 | 0.1 | 30.4 | inactive |
| LOC440012 | 0 | 8.2 | 6.5 | 10 | inactive |
| ZNF75A (GeneID 7627) | 1 | 5.7 | 2.3 | 9.1 | inactive |
| PLXNB1 (GeneID 5364) | -1 | -24 | -41 | -7.1 | inactive |
| LINC00487 (GeneID 400941) | 0 | 7.8 | 6.8 | 8.8 | inactive |
| HSPA8P11 (GeneID 392209) | 0 | 8 | 9.8 | 6.3 | inactive |
| EEF1DP3 (GeneID 196549) | 0 | 5.5 | 9.1 | 2 | inactive |
| FAM163A (GeneID 148753) | 0 | 4.5 | -5.1 | 14.1 | inactive |
| FIRRM (GeneID 55732) | 0 | 3.4 | 25.7 | -18.9 | inactive |
| NUP43 (GeneID 348995) | 1 | 15 | 14 | 16.1 | inactive |
| LOXL3 (GeneID 84695) | 1 | 11 | 30.1 | -8 | inactive |
| LOC440399 | 1 | 21.9 | 13.9 | 30 | inactive |
| ESD (GeneID 2098) | 0 | 4.7 | 9.8 | -0.3 | inactive |
| MAPK11 (GeneID 5600) | 1 | 5.7 | 17.1 | -5.6 | inactive |
| LDB1 (GeneID 8861) | 1 | 14 | 0.5 | 27.5 | inactive |
| KPTN (GeneID 11133) | 1 | 8.9 | 13.8 | 4 | inactive |
| ZNF622 (GeneID 90441) | 0 | 8.5 | 8.4 | 8.6 | inactive |
| STOML2 (GeneID 30968) | -1 | -16.2 | -33.9 | 1.5 | inactive |
| LOC387921 | 0 | 9.1 | 12.6 | 5.7 | inactive |
| PLAAT1 (GeneID 57110) | 1 | 11.2 | 0.6 | 21.7 | inactive |
| ACTR1B (GeneID 10120) | 1 | 11.8 | 8.5 | 15.1 | inactive |
| PLK4 (GeneID 10733) | 0 | 8.7 | 9.1 | 8.4 | inactive |
| LARP4B (GeneID 23185) | 0 | 10 | 11.5 | 8.5 | inactive |
| MSRA (GeneID 4482) | 1 | 21.8 | 11.7 | 31.9 | inactive |
| HNRNPUL1 (GeneID 11100) | 1 | 2.6 | -16.1 | 21.3 | inactive |
| LOC339306 | 0 | 6.3 | -2 | 14.5 | inactive |
| HPGD (GeneID 3248) | 0 | -3.4 | 21 | -27.7 | inactive |
| LOC400785 | 0 | 0.6 | 5.8 | -4.6 | inactive |
| EMILIN1 (GeneID 11117) | 0 | 11.5 | 15.5 | 7.6 | inactive |
| COPB2 (GeneID 9276) | 0 | 7.9 | 10.3 | 5.5 | inactive |
| LINC01299 (GeneID 286186) | 0 | 11.3 | 12.7 | 9.9 | inactive |
| GRM5P1 (GeneID 440040) | 0 | 10.4 | 10 | 10.8 | inactive |
| MRPL35 (GeneID 51318) | 0 | -12 | -23.4 | -0.6 | inactive |
| LOC389173 | 0 | -7.6 | -7.7 | -7.4 | inactive |
| LOC440505 | 1 | 17.1 | 12.4 | 21.9 | inactive |
| GKAP1 (GeneID 80318) | 0 | -5.1 | -0.2 | -10.1 | inactive |
